Values from PubChem BioAssay AID743121 (NCATS, 2013).

Assay: 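Genes whose silencing strengthens cell killing by camptothecin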 (primary screen)
Cell system: MDA-MB-231 cells, a human breast cancer line
Knock-down reagent: single siRNA against human genes, 20 nM siRNA (0.8 pmol per well)
Timing: 120 h (drug added 48 h after transfection, read 72 h later)
Conditions: camptothecin 20 nM (about EC30) for 72 h; vehicle 0.1% DMSO in parallel plates
Detection: 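Cell viability by ATP luminescence (CellTiter-Glo) as % of non-targeting siRNA wells, and the log2 ratio of viability without drug over viability with camptothecin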
Reading the numbers: log2 vehicle/camptothecin viability: higher = stronger sensitisation to camptothecin; viability with camptothecin and viability without drug: higher = more viable cells
Active means: 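Active genes have an RSA gene-level p-value below 0.001, computed from the ratios of their separate siRNAs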
Here is an unselected part of about 26,000 reagents tested. 167 of them (0.63%) were called active. 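Calls are per gene from RSA p-values that are not deposited; an individual active-marked siRNA can sensitise only weakly.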 Entries without a mark were called inactive. The numbers tell different reagents against one gene apart.

gene	siRNA no.	log2 vehicle/camptothecin viability	viability with camptothecin (% of control)	viability without drug (% of control)
DOK1	1	-0.289	77	63
DOK1	2	-0.22	60.4	51.9
DOK1	3	-0.078	88.9	84.2
DOK1	4	-0.511	89.6	62.9
SEMA3G	1	0.0915	72.4	77.1
SEMA3G	2	-0.502	69.7	49.2
SEMA3G	3	-0.216	74.9	64.5
SEMA3G	4	-0.000103	95.6	95.6
SCN8A	1	-0.118	85.3	78.6
SCN8A	2	-0.509	68.2	47.9
SCN8A	3	0.529	59.4	85.8
FER	1	-0.196	101	88.2
FER	2	-0.144	77.4	70.1
FER	3	-0.274	86.8	71.8
FER	4	-0.209	85	73.6
GRM6	1	-0.087	84.5	79.6
GRM6	2	-0.278	37	30.5
GRM6	3	-0.236	82.5	70.1
GRM6	4	-0.0719	96.6	91.9
IL27	1	-0.045	87.7	85
IL27	2	0.12	57.4	62.4
IL27	3	-0.683	70.1	43.7
IL27	4	-0.394	106	81.1
TBXA2R	1	-0.0616	88.3	84.6
TBXA2R	2	-0.473	94.4	68
TBXA2R	3	-0.148	68.1	61.5
TBXA2R	4	-0.18	101	89.3

The list goes on, starting with the last 7 of the part before.
gene	siRNA no.	log2 vehicle/camptothecin viability	viability with camptothecin (% of control)	viability without drug (% of control)
IL27	2	0.12	57.4	62.4
IL27	3	-0.683	70.1	43.7
IL27	4	-0.394	106	81.1
TBXA2R	1	-0.0616	88.3	84.6
TBXA2R	2	-0.473	94.4	68
TBXA2R	3	-0.148	68.1	61.5
TBXA2R	4	-0.18	101	89.3
MMP28	1	-0.059	107	103
MMP28	2	-0.277	127	105
MMP28	3	-0.521	59.3	41.3
MMP28	4	0.0187	88	89.1
MMP28	5	-0.332	73.4	58.3
MMP28	6	0.0992	106	114
CACNA1S	1	0.121	53	57.7
CACNA1S	2	-0.033	101	98.5
CACNA1S	3	-0.149	42.7	38.5
CACNA1S	4	-0.193	76.9	67.3
SMARCA2	1	-0.208	74.6	64.6
SMARCA2	2	-0.271	52.3	43.3
SMARCA2	3	-0.158	90	80.7
SMARCA2	4	-4.97	92.6	2.95
KCNA2	1	0.43	74.9	101
KCNA2	2	0.236	41.9	49.4
KCNA2	3	-0.151	97.9	88.2
KCNA2	4	-0.469	65.2	47.1
MYCL	1	0.262	78.2	93.8
MYCL	2	-0.28	76.6	63.1
MYCL	3	-0.247	103	86.4
MYCL	4	-1.21	33.9	14.6
MYCL	5	-0.267	78.4	65.2
MYCL	6	0.053	82.1	85.2
MYCL	7	-0.241	102	86.4
MYCL	8	-0.115	102	94.3
